# Laboratory results reported in patent US10479979B2, “Method for making and using cold atmospheric plasma stimulated media for cancer treatment” (U.S. Patent Innovations, LLC, priority 2015, dated 2019).
# Some compounds share one wording; it may come from a single statement.
# Tested on: cancer cells
# Test: Reaction of amino acids with effective species in CAPs DMEM, cancer cells as cell probe
# Type: cell-based
# Details: 2.4 mM amino acid rich DMEM, among 20 amino acids
row,Structure (SMILES),reactivity towards the effective species in CAPs media
1,NCCCC[C@H](N)C(=O)O [lysine],react significantly with the effective species
2,NC(=O)C[C@H](N)C(=O)O [asparagine],react significantly with the effective species
3,NC(=O)CC[C@H](N)C(=O)O [glutamine],react significantly with the effective species
4,N=C(N)NCCC[C@H](N)C(=O)O [arginine],react significantly with the effective species
